Results published in article PMC7797639.
Results are given in words; binding and its absence hold for the method and conditions named. Binding seen in cells or lysates may run through a third protein. Some entries that bind do so weakly or less than the wild type.

Target: T1, JMJD8 (human (endogenous in A549 and H1299)) (UniProt Q96S16)
T1 sequence: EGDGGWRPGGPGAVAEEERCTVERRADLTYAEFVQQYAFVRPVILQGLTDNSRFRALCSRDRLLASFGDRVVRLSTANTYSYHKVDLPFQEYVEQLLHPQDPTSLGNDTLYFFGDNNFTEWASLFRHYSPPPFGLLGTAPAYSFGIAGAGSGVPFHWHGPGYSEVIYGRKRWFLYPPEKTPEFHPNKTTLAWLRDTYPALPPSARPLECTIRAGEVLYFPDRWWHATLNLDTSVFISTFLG
Experiment: co-IP; endogenous proteins; A549 and H1299 lysate (200 ug protein) incubated overnight at 4 °C with 10 ug anti-JMJD8 or anti-IgG, protein A/G agarose beads, washed three times with RIPA buffer, blotted

binding: binds
Substance: Epidermal growth factor receptor (from UniProt P00533 25-1210)
